The campaign covered roughly 200,000 compounds. About 25 (0.01%) were called active. The shares of active, inactive and inconclusive entries below differ from those in the screen. Calls come from the whole dose curve; as a rule, active = well fitted inhibition curve with a large enough effect in the signal ratio, with a control signal flat (not every such curve was filed as active); inconclusive = small, poorly fitted or top-dose-only effect, or effect the other way, or a change in a side signal; inactive = flat fitted curve, though single readings scatter; the % refers to the signal ratio. Where the call is inconclusive, the potency comes from a doubtful curve fit.
experiment: qHTS Assay for Modulators of Lamin A Splicing; conditions: HeLa LMNA splicing GFP/RFP minigene ratio, 48 h; ratio change, negative = inhibition: at 46.1 µM (top of the series) unless noted
Summary of the method: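 S3 HeLa cells stably expressing lamin A-EGFP splicing minigene plus DsRed2, 600 cells/well, 48 h compound exposure at 37C. Laser-scanning cytometry; analysed as GFP (500-530 nm)/RFP (575-640 nm) total intensity ratio; 0.5% DMSO vehicle.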
% is set by controls: 0 for no effect and ±100 for the full control effect; potency is the fitted concentration of half-maximal effect.

SMILES	ratio change, negative = inhibition	Potency
O=C(NC1CC1)c1cc2c(s1)-c1ccccc1OC2	inactive	
COc1ccccc1N1C(=O)N(C(C)=O)C2C1Nc1ccccc1N2C (stereo not given)	inconclusive: -28.3%	
COc1ccc(NC(=S)N2CCC(C(=O)c3ccc(F)cc3)CC2)c(OC)c1	inactive	
CCN(CC)C(=O)c1csc(Nc2ccc(C)cc2)n1	inactive	
Cc1ccnc2nc(C(=O)Nc3nc(-c4ccccn4)cs3)nn12		inconclusive: 35.5 µM [rising, single point]
O=C1OCCC1Sc1nc2cc(Cl)ccc2n1Cc1ccccc1 (stereo not given)	inactive	
CC(CCc1ccccc1)NC(=O)COC(=O)c1ccc(S(C)(=O)=O)c([N+](=O)[O-])c1 (stereo not given)		inconclusive: 35.5 µM [cytotoxic, partial curve, poor fit]
Cn1ccnc1SCC(=O)c1ccc(Br)cc1	inactive	
CC(C)C(NC(=O)OC(C)(C)C)C(=O)N1CCCC1C(=O)NC(Cc1ccccc1)C(N)=O (stereo not given)		inconclusive: 14.1 µM [activator, single point]
COc1ccc(OC)c(/C=C/C(=O)N(C)CC(=O)Nc2ccc(C)cc2)c1	inconclusive: 0.965%	
COc1ccc(-c2cnnn2-c2ccc(NC(=O)/C=C/c3ccc(OC)c(OC)c3)cc2)cc1	inconclusive: -2.16%	
CCCSC(=S)NC1CCS(=O)(=O)C1 (stereo not given)	inconclusive: -36.1%	
O=C(CSc1ncnc2c1cnn2-c1ccc(F)cc1)NCc1ccc2c(c1)OCO2	inactive	
CCOC(=O)C1CCN(C(=O)COc2cc(C)c(Br)cc2C)CC1	inconclusive: 1.64%	
COC(=O)C1=C(C(=O)OC)[C@@H]2N(C)c3ccc(OC)cc3[C@@]23C[C@@H](C(=O)OC)N(C(=O)CC(C)C)C3=N1	inconclusive: -8.62% [at 9.22 µM]	
COc1ccc(C(=O)N2CCN(c3ccc(C)cc3C)CC2)cc1OC		inconclusive: 35.5 µM [fluorescent, partial curve]
CCCCn1c(-c2csc(CC)c2)n[nH]c1=S	inconclusive: -12.4%	
O=C1CC(c2c(F)cccc2Cl)C(n2cncn2)C(O)=C1C1NCCc2ccccc21 (stereo not given)	inconclusive: 18.7% [at 46 µM]	
COc1ccccc1-c1nn2c(C3COc4ccccc4O3)nnc2s1 (stereo not given)	inconclusive: 12.3%	
COC(=O)c1ccccc1NC(=S)NC(=O)c1ccc2ccccc2c1	inactive	
O=C(COC(=O)CCC(=O)c1cccs1)NCc1ccccc1	inconclusive: 3.08% [at 46 µM]	
COc1cccc(NC(=S)N(Cc2ccc(C)cc2)Cc2ccccn2)c1	inactive	

SMILES	ratio change, negative = inhibition	Potency
CCCC12CN3CC(CCC)(CN(C1)C3c1ccccc1)C2=O (stereo not given)	inconclusive: -13.4% [at 46 µM]	
O=C(Nc1ccc(Cl)cc1)OCCn1nnnc1C(c1ccccc1)N1CCOCC1 (stereo not given)	inactive	
Oc1ccc(/C=N/NC(=S)N2CCOCC2)cc1	inconclusive: -43.2% [at 46 µM]	
CCN(CC)CCNC(=O)c1ccc2nc(CCc3ccccc3)oc2c1	inactive	
COc1ccccc1NC(=O)C1CCN(C(=O)c2sc3nc[nH]c(=O)c3c2C)CC1	inconclusive: 12.4% [at 46 µM]	
COc1cc(OC)c(OC)cc1C#N	inconclusive: 27.1% [at 46 µM]	
Nn1c(Cc2cccc3ccccc23)nnc1SCCOc1ccc(Br)cc1		inconclusive: 35.5 µM [inhibitor, single point]
Cc1ccccc1OCCNC(=S)Nc1ccccc1	inactive	
Cc1cc(S(=O)(=O)N2CCC(N3CCCCC3)CC2)ccc1-n1cnnn1	inactive	
Cc1ccc(C(=O)NN2C(=O)/C(=C/c3cn(C)c4ccccc34)SC2=S)cc1	inactive	
O=C(CNC(=O)Cc1ccccc1)N=Nc1c(O)n(Cc2ccc3c(c2)OCO3)c2ccccc12	inactive	
Cc1cc(C)cc(-n2c(C)nc3cc(C(=O)NCc4ccc(F)cc4)ccc32)c1	inconclusive: -7.43% [at 46 µM]	
CCOc1ccc(CCNC(=O)c2cn(-c3cccc(OC)c3)c(=O)c3ccccc23)cc1	inconclusive: 8.85% [at 46 µM]	
CCOC(=O)CCCNC(=O)COC(=O)/C=C/c1ccc2c(c1)OCO2	inconclusive: 15.7% [at 46 µM]	
Cn1nc(C(=O)NCc2ccc(F)cc2)c2ccccc2c1=O	inconclusive: 14%	
O=C(N/N=C/c1ccc([N+](=O)[O-])o1)c1ccc(O)cc1		inconclusive: 35.5 µM [falling, single point]
O=C(c1nc2ccccn2c1CNCCCn1nnc2ccccc21)N1CCOCC1	inactive	
CCN(C(=O)Cn1c(=O)nc(-c2ccccc2)c2cc(Cl)ccc21)c1cccc(C)c1	inconclusive: 15.1% [at 46 µM]	
O=[N+]([O-])/C=C\c1ccc(N2CCCC2)c(F)c1	inconclusive: -44.1% [at 46 µM]	
CC(CCc1ccccc1)NC(=O)CCNC(=O)Cn1ccc2ccccc2c1=O (stereo not given)	inactive	
CC(=O)Nc1nc(C(=O)O)cs1	inactive: -15.6% [at 9.22 µM]	
OCCN1CCN(C(c2ccc(Cl)cc2Cl)c2sc3nc(-c4ccco4)nn3c2O)CC1 (stereo not given)	inactive	

Shown field by field: 4 of the compounds above.
COc1ccccc1N1C(=O)N(C(C)=O)C2C1Nc1ccccc1N2C (stereo not given)
  ratio change, negative = inhibition: inconclusive: -28.3%
COc1ccc(NC(=S)N2CCC(C(=O)c3ccc(F)cc3)CC2)c(OC)c1
  ratio change, negative = inhibition: inactive
CCN(CC)C(=O)c1csc(Nc2ccc(C)cc2)n1
  ratio change, negative = inhibition: inactive
Cc1ccnc2nc(C(=O)Nc3nc(-c4ccccn4)cs3)nn12
  Potency: inconclusive: 35.5 µM [rising, single point]

Reprinted at random: two compounds from above, in no set order.
SMILES	ratio change, negative = inhibition	Potency
COc1ccccc1-c1nn2c(C3COc4ccccc4O3)nnc2s1 (stereo not given)	inconclusive: 12.3%	
COc1ccccc1NC(=O)C1CCN(C(=O)c2sc3nc[nH]c(=O)c3c2C)CC1	inconclusive: 12.4% [at 46 µM]	

Next entries:

SMILES	ratio change, negative = inhibition	Potency
O=C(O)CSc1c(O)c2ccccc2[nH]c1=O	inconclusive: -10.1% [at 9.22 µM]	
CCCn1c(SCC(=O)Nc2cccc(Cl)c2Cl)n[nH]c1=O	inconclusive: 20.7% [at 9.22 µM]	
Cn1c(-c2c(N)n(C3CCCC3)c3nc4ccccc4nc23)nc2ccccc21		inconclusive: 22.4 µM [fluorescent, single point]
COc1cc(NC(=O)C2C3C=CC(C3)C2C(=O)O)c(OC)cc1Cl (stereo not given)	inactive	
CCC(=O)N1CCc2cc(CNS(=O)(=O)c3ccc(Br)s3)ccc21	inconclusive: -2.4% [at 46 µM]	
Cc1ccc(NS(=O)(=O)c2ccc3[nH]c4c(c3c2)CCCCCC4)cc1	inconclusive: 463% [at 46 µM]	
COc1ccc(-n2c(C)nc3cc(C(=O)NC4CCCCCC4)ccc32)cc1	inactive	
Nc1c(-c2ccccc2)c(CSc2nc3ccccc3[nH]2)nn1-c1ccc(Cl)cc1	inconclusive: -48.4%	
COc1ccc(NC(=O)CN2C(=O)C3(SCC(=O)N3c3ccccc3)c3ccccc32)cc1Cl (stereo not given)	inactive	
Cc1ccc(C(C)C)cc2c(C)ccc1-2	inactive	
COc1ccc(C(=O)c2ccc(OC)cc2O)c(O)c1	inactive	
S=C1NC2=C(CCCC2=C2SCCS2)C(c2ccccc2)N1 (stereo not given)		inconclusive: 20 µM [inhibitor, partial curve]
CN1CCN(Cc2cccc(Oc3ccccc3)c2)CC1	inactive	
COc1cc(/C=C(\NC(=O)c2ccccc2)C(=O)NCC(=O)O)c([N+](=O)[O-])cc1OC	inconclusive: -0.51%	
CCOc1ccc(C(=O)OCc2nnc(-c3cccs3)o2)cc1OC	inconclusive: 5.32%	
Cc1ccc(C(C(=O)NC2CCCCC2)N(Cc2ccccc2)C(=O)Cc2c[nH]c3ccccc23)o1 (stereo not given)		inconclusive: 14.1 µM [falling, partial curve, poor fit]
CCOc1ccc(NC(=O)COC(=O)CCCc2c[nH]c3ccccc23)cc1	inactive	
COc1ccccc1NC(=O)c1ccc(NC(=O)COC(=O)C(C)C)cc1	inconclusive: -30%	
Cc1nn(-c2ccc(Cl)c(Cl)c2)c(=O)c2ccccc12	inactive	
Oc1c(C=Nc2ccccc2)sc(=S)n1Cc1ccccc1	inactive	
CN(C)c1ccc(C(C#N)c2ccc(Cl)cc2)nn1 (stereo not given)	inconclusive: 16.9% [at 46 µM]	
CC(C)NC(=O)/C(C#N)=C/c1cccc(NC(=O)c2ccccc2Cl)c1		inconclusive: 35.5 µM [falling, single point]

SMILES	ratio change, negative = inhibition	Potency
CCOC(=O)c1cccc(NC(=O)CSc2nc3cccnc3n2C)c1		inconclusive: 7.08 µM [fluorescent, partial curve]
CCn1c(/C(C#N)=C/c2ccccc2Cl)nc2ccccc21	inconclusive: -28.6% [at 46 µM]	
CCc1nc(SCc2cc(=O)c3cc(C)ccc3[nH]2)n[nH]1	inconclusive: -5.8% [at 46 µM]	
COC(=O)c1cc(=O)n(Cc2ccco2)c(=Nc2ccc(F)c(Cl)c2)s1		inconclusive: 35.5 µM [cytotoxic, single point]
CCOC(=O)N1CCc2c(sc3nc(SC(C)C)n(N)c(=O)c23)C1		inconclusive: 35.5 µM [falling, single point]
Oc1ccc2c(c1)C1CCCC1(N1CCOCC1)O2 (stereo not given)	inactive	
N#Cc1ccccc1CSc1nc(O)cc(=O)[nH]1	inactive	
CN(C)C(=O)c1ccc(-c2nccc(N(C)Cc3ccco3)n2)cc1	inactive	
Cc1ccc(Nc2cc(C)nc3nc(C)nn23)c(C)c1	inactive	
CC(NC(=O)C(NC(=O)C1CCCN1C(=O)OC(C)(C)C)C(C)C)C(N)=O (stereo not given)	inactive	
Cc1ccc(C)c(S(=O)(=O)N2CCN(CC(=O)N3CCc4ccccc4C3)CC2)c1	inactive	
CC(C)NC(=O)C1CCCN(c2ncnc3c2nc2n3CCCCC2)C1 (stereo not given)	inconclusive: -8.44% [at 46 µM]	
CSc1nc2ccc3nc(NC(=O)c4cccs4)sc3c2s1	inconclusive: 30.2%	
COc1ccc(Cl)cc1NC(=O)Cn1cnc2c1c(=O)n(C)c(=O)n2C	inactive	
Cc1cccc(N=CC=C2OC(C)(C)C(C)(C)O2)c1	inactive	
CC1CN(c2c(F)c(N)c3c(=O)c(C(=O)O)cn(C4CC4)c3c2F)CC(C)N1 (stereo not given)	inconclusive: -35.1%	
CCc1cc(C(N)=S)ccn1	inconclusive: 22.6% [at 46 µM]	
Brc1ccc(Sc2cnc3ccccc3n2)cc1	inconclusive: 0.8%	
COc1cc(OC)c(S(=O)(=O)NCc2cccnc2)cc1NC(C)=O	inconclusive: -0.883% [at 46 µM]	
